# Source: US20260108496A1, “METHODS FOR REPROGRAMING EXHAUSTED T CELLS AND BOOSTING IMMUNE CHECKPOINT BLOCKADE THERAPY FOR CANCER” (Ohio State Innovation Foundation, priority 2022, published 2026)
# For at least one compound, name, drawing or mass did not settle the structure.
# Test system: exhausted anti-tumor CD8 T cells
# Assay: sequential decitabine and anti-PD-L1 treatment of TRAMP-C2 tumor-bearing mice
# Assay type: in vivo
# Conditions: sequential decitabine then anti-PD-L1, >30 days post-tumor implantation
smiles,measurement,value
Nc1ncn([C@H]2C[C@H](O)[C@@H](CO)O2)c(=O)n1 [decitabine],response of exhausted anti-tumor CD8 T cells to ICB therapy,potentiates the response
